Assay results taken from publication PMC5171868.
No constants are given. Whether binding was seen depends on the method and setting. Binding seen in cells or lysates may run through a third protein. Some results given as binding are weak or reduced against the parent protein; the word gives no strength.

By UniProt entry, the sequences of proteins in these tests, tags left out. Where a name states a change or a piece, a line headed by the entry shows the natural chain unless it says otherwise. Residues count along the entry.
UniProt P15559: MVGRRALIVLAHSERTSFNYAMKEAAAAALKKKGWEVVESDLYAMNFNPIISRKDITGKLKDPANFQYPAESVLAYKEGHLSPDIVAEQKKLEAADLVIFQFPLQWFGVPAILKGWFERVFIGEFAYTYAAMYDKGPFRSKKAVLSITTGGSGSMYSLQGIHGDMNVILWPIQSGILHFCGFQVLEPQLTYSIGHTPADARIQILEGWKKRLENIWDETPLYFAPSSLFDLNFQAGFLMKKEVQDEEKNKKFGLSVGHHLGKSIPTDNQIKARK
UniProt Q16665: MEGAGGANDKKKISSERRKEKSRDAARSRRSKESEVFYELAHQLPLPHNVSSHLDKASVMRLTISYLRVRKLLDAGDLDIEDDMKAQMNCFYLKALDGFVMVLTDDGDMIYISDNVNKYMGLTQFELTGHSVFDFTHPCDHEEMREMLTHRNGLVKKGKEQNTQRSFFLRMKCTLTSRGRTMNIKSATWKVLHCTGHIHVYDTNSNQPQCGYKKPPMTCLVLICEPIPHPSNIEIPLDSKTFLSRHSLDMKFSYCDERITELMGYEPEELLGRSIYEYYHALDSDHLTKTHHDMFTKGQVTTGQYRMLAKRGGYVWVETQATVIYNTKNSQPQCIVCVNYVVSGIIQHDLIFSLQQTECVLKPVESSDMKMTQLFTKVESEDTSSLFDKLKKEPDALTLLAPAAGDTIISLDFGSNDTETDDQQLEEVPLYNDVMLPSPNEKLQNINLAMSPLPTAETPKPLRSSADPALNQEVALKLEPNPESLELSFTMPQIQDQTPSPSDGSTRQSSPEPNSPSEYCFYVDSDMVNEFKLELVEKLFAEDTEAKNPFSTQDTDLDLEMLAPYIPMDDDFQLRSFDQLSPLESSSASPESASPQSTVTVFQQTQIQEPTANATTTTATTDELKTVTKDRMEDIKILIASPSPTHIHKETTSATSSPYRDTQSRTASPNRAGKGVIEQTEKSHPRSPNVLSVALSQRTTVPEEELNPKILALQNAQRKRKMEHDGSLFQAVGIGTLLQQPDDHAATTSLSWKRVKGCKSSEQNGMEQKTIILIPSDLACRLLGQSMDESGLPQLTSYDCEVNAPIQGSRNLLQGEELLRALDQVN
EGFP-HIF-1α 1–786: residues 1-786 of Q16665
EGFP-HIF-1α 1–575: residues 1-575 of Q16665
EGFP-HIF-1α 331–575 (ODD domain): residues 331-575 of Q16665

Assays:
[1] = molecular target: NQO1-myc-His6 (human) (UniProt P15559); assay: pull-down; His6-tagged protein affinity-purified and conjugated to Ni-NTA resin; incubated 2 h at 4 °C with 1 mg total protein of RKO cells exposed to hypoxia for 2 h; immunoblot; only the target purified
[2] = molecular target: EGFP-HIF-1α 331–575 (ODD domain) (human) (UniProt Q16665); assay: pull-down; EGFP fusion protein affinity-purified and conjugated to anti-GFP beads; incubated 2 h at 4 °C with 1 mg total protein of RKO cells exposed to hypoxia for 2 h; immunoblot with anti-GFP and anti-NQO1; only the target purified
[3] = molecular target: EGFP-HIF-1α full-length (human) (UniProt Q16665); assay: as above
[4] = molecular target: EGFP-HIF-1α 1–575 (human) (UniProt Q16665); assay: as above
[5] = molecular target: EGFP-HIF-1α 1–786 (human) (UniProt Q16665); assay: as above
[6] = molecular target: HIF-1α-myc-His6 (human) (UniProt Q16665); assay: pull-down; His6-tagged protein affinity-purified and conjugated to Ni-NTA resin; incubated 2 h at 4 °C with 1 mg total protein of RKO cells exposed to hypoxia for 2 h; immunoblot; only the target purified
[7] = molecular target: HIF-1α (hypoxia-inducible factor 1α), endogenous (human (endogenous in RKO and MDA-MB-231)) (UniProt Q16665); assay: co-IP; endogenous proteins; RKO cells exposed to 20 or 0.5% O2 for 2 h; lysis in RIPA/PBS (33% v/v); IP with anti-HIF-1α or anti-NQO1 antibody, normal IgG as control; Protein G-magnetic beads, 4 °C
[8] = molecular target: HIF-1α (hypoxia-inducible factor 1α), endogenous (human (endogenous in RKO and MDA-MB-231)) (UniProt Q16665); assay: co-IP; cytosolic fraction of RKO cells (20 or 0.5% O2, 2 h; Tween 20 lysis buffer); 0.5 mg protein precipitated with 0.5 μg anti-HIF-1α or anti-NQO1 antibody

| binding [1] | binding [2] | binding [3] | binding [4] | binding [5] | binding [6] | binding [7] | binding [8] | Substance |
| --- | --- | --- | --- | --- | --- | --- | --- | --- |
| binds |  |  |  |  |  |  |  | HIF-1α (hypoxia-inducible factor 1α), endogenous (from UniProt Q16665 1-826) |
|  | binds | binds | binds | binds | binds | binds | binds | NAD(P)H:quinone oxidoreductase 1 (NQO1), endogenous (from UniProt P15559 1-274) (enzyme) |
